The values below come from US6147204.

For some of these results: The exact form of at least one protein or probe is not confirmed. Some results are limits rather than exact numbers.

What is called IC50 is the concentration needed to halve the response being measured.

One data set has as its system thrombin. Nature of the data set: inhibition of the protein. To be noted: cholesterol, 7.08 ug/300 ul, control 18-20 s, 50 mM Tris, 100 mM NaCl, label: fluorescein (approximately 50% of molecules), single-stranded DNA.
The test system of data set [1] is VEGF (vascular endothelial growth factor). Nature of the data set: binding assay. To be noted: 5'-dialkylglycerol (DAG), embedded in DSPC:cholesterol liposome; 1 uM significantly inhibited VEGF-induced vascular permeability in guinea pigs (Miles assay); variant of NX213.
For data set [2] the test system is unchanged. Description: activity in cells. To be noted: dialkylglycerol (DAG), embedded in DSPC:cholesterol liposome; KS cell proliferation; variant of NX278-liposome.

As for “CAGTCCGTGGTAGGGCAGGTTGGGGTGACTTCGTGGAAT [NX232 liposome (DSPC:Chol 2:1)]”, the “functional effect of the aptamer” value in the data set on thrombin (embedded in liposome, liposome preparation A, preparation B 56-59 s, 1 mM MgCl2, pH 7.4, 37 C, variant of NX232) is given as “active”.

Regarding “CAGTCCGTGGTAGGGCAGGTTGGGGTGACTTCGTGGAAT [NX232]”, the “functional effect of the aptamer” value in the data set on thrombin (unsonicated, sonicated 45-50 s, 1 mM MgCl2, 0.1% PEG8000, pH 7.4, 37 C, fibrinogen 2.5 mg/ml) is “active”. Take “TTTTACCCUGAUGGUAGACGCCGGGGUGTTTTT [NX278-liposome]”: in data set [1], the binding result is reported as “binds”. In data set [2], “TTTTGUCGGUACGGAGUGGACCGUCACGTTTTT [scNX278-liposome]” showed a concentration for half-maximal inhibition (IC50) above 1000 nM.
